Measurements from the supplement of paper PMC4604168 (melanoma cell lines).
The other results are listed elsewhere or left out. Single values are uncertain, as repeats are few or missing.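 Imaging used 1,536-well plates; nuclei positive for cleaved PARP by antibody were divided by total DNA-stained nuclei to yield the apoptosis fraction. Doses for screening kept most cells viable, and cell lines differ markedly in resting and induced cleaved-PARP levels.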

Legend:
Assay in all cases: cleaved PARP positive nuclei fraction relative to DMSO control; melanoma cells; higher = more apoptosis
Conditions in all cases: library dose: low library concentration; 72 h
501Mel = test system: 501Mel
A101D = test system: A101D
A2058 = test system: A2058
A375 = test system: A375
C32 = test system: C32
CBRC008 = test system: CBRC008 (line from a melanoma biopsy)
CBRC013 = test system: CBRC013 (line from a melanoma biopsy)
CBRC014 = test system: CBRC014 (line from a melanoma biopsy)
CBRC016 = test system: CBRC016 (line from a melanoma biopsy)
CBRC017 = test system: CBRC017 (line from a melanoma biopsy)

Row | Structure (SMILES) | cleaved PARP positive nuclei fraction (501Mel) [%] | cleaved PARP positive nuclei fraction (A101D) [%] | cleaved PARP positive nuclei fraction (A2058) [%] | cleaved PARP positive nuclei fraction (A375) [%] | cleaved PARP positive nuclei fraction (C32) [%] | cleaved PARP positive nuclei fraction (CBRC008) [%] | cleaved PARP positive nuclei fraction (CBRC013) [%] | cleaved PARP positive nuclei fraction (CBRC014) [%] | cleaved PARP positive nuclei fraction (CBRC016) [%] | cleaved PARP positive nuclei fraction (CBRC017) [%]
1 | Cn1cnc2c(F)c(Nc3ccc(Br)cc3Cl)c(C(=O)NOCCO)cc21 [selumetinib] + Cc1ccc(NC(=O)c2cccc(N(C)C)c2)cc1NC(=O)c1ccc(O)cc1 [ZM336372] (first compound 0.015 µM, partner dose 2 µM) | 212 | 127 | 50.8 | 72.8 | 106 | 317 | 107 | 94.4 | 80.9 | 64.3
2 | CCCCCCCCc1ccc(CCC(N)(CO)CO)cc1 [fingolimod] + O=C(O)c1ccc(-c2c[nH]c3ncc(-c4ccccc4)cc23)cc1C1CCCC1 [GSK650394] (first compound 2 µM, partner dose 0.16 µM) | 183 | 90.3 | 117 | 217 | 114 | 159 | 70.9 | 94.2 | 119 | 158
3 | CC(=O)O[C@@]12CO[C@@H]1C[C@H](O)[C@@]1(C)C(=O)[C@H](O)C3=C(C)[C@@H](OC(=O)[C@H](O)[C@@H](NC(=O)OC(C)(C)C)c4ccccc4)C[C@@](O)([C@@H](OC(=O)c4ccccc4)[C@H]21)C3(C)C [Docetaxel] + CC(C)(C)c1cnc(CSc2cnc(NC(=O)C3CCNCC3)s2)o1 [SNS-032] (first compound 0.0001 µM, partner dose 0.01 µM) | 312 | 105 | 5400 | 1280 | 350 | 228 | 89.2 | 146 | 164 | 119
4 | CCN(CC)CCNC(=O)c1c(C)[nH]c(/C=C2\C(=O)Nc3ccc(F)cc32)c1C [sunitinib] + CC(C)(C)c1cnc(CSc2cnc(NC(=O)C3CCNCC3)s2)o1 [SNS-032] (first compound 0.4 µM, partner dose 0.01 µM) | 110 | 56.1 | 117 | 269 | 51.3 | 114 | 293 | 92.6 | 207 | 81.7
5 | NC1(c2ccc(-c3nc4ccn5c(=O)[nH]nc5c4cc3-c3ccccc3)cc2)CCC1 + CN(C)S(=O)(=O)c1ccc2c(c1)/C(=C/c1cc3c([nH]1)CCCC3)C(=O)N2 [SU6656] (first compound 0.4 µM, partner dose 0.4 µM) | 178 | 72.2 | 149 | 61.2 | 306 | 100 | 99.6 | 73.6 | 32 | 90.4
6 | C[C@@H](N)c1ccc(C(=O)Nc2ccnc3[nH]ccc23)cc1 + NCC(=O)Nc1ccc(-n2nc(C(F)(F)F)cc2-c2ccc3c(ccc4ccccc43)c2)cc1 [OSU03012] (first compound 0.4 µM, partner dose 1 µM) | 409 | 77.8 | 140 | 14400 | 91.4 | 38.6 | 136 | 123 | 131 | 84.9
7 | CCN(CC)CCNC(=O)c1c(C)[nH]c(/C=C2\C(=O)Nc3ccc(F)cc32)c1C [sunitinib] + O=C(Nc1cccc(Cl)c1)Nc1ncc(CCNc2ncnc3ccsc23)s1 [SNS314] (first compound 0.4 µM, partner dose 0.0008 µM) | 83.8 | 97.2 | 101 | 114 | 54.1 | 96.5 | 342 | 312 | 63.2 | 80.8
8 | CC(=O)O[C@@]12CO[C@@H]1C[C@H](O)[C@@]1(C)C(=O)[C@H](O)C3=C(C)[C@@H](OC(=O)[C@H](O)[C@@H](NC(=O)OC(C)(C)C)c4ccccc4)C[C@@](O)([C@@H](OC(=O)c4ccccc4)[C@H]21)C3(C)C [Docetaxel] + O=C(Nc1cccc(Cl)c1)Nc1ncc(CCNc2ncnc3ccsc23)s1 [SNS314] (first compound 0.0001 µM, partner dose 0.0008 µM) | 117 | 103 | 4450 | 6250 | 377 | 66.5 | 160 | 128 | 169 | 119
9 | C[C@@H](N)c1ccc(C(=O)Nc2ccnc3[nH]ccc23)cc1 + CC1(C)NC(=O)N(c2ccc([N+](=O)[O-])c(C(F)(F)F)c2)C1=O [nilutamide] (first compound 0.4 µM, partner dose 1 µM) | 39.1 | 127 | 98 | 58.5 | 91 | 55.8 | 147 | 90.1 | 84.1 | 93.4
10 | CC1(C)CCC(c2ccc(Cl)cc2)=C(CN2CCN(c3ccc(C(=O)NS(=O)(=O)c4ccc(N[C@H](CCN5CCOCC5)CSc5ccccc5)c(S(=O)(=O)C(F)(F)F)c4)cc3)CC2)C1 + Cc1ccc(NC(=O)c2cccc(N(C)C)c2)cc1NC(=O)c1ccc(O)cc1 [ZM336372] (first compound 0.4 µM, partner dose 2 µM) | 83.3 | 249 | 73.6 | 243 | 356 | 321 | 91.6 | 616 | 302 | 266
11 | NC1(c2ccc(-c3nc4ccn5c(=O)[nH]nc5c4cc3-c3ccccc3)cc2)CCC1 + O=C(Nc1cccc(Cl)c1)Nc1ncc(CCNc2ncnc3ccsc23)s1 [SNS314] (first compound 0.4 µM, partner dose 0.0008 µM) | 97.8 | 83.5 | 108 | 111 | 87.6 | 221 | 114 | 74.2 | 55.5 | 141
12 | CC(=O)O[C@@]12CO[C@@H]1C[C@H](O)[C@@]1(C)C(=O)[C@H](O)C3=C(C)[C@@H](OC(=O)[C@H](O)[C@@H](NC(=O)OC(C)(C)C)c4ccccc4)C[C@@](O)([C@@H](OC(=O)c4ccccc4)[C@H]21)C3(C)C [Docetaxel] + O=C(O)c1ccc(-c2c[nH]c3ncc(-c4ccccc4)cc23)cc1C1CCCC1 [GSK650394] (first compound 0.0001 µM, partner dose 0.16 µM) | 112 | 83.3 | 4750 | 5490 | 221 | 595 | 128 | 121 | 256 | 213
13 | C[C@@H](N)c1ccc(C(=O)Nc2ccnc3[nH]ccc23)cc1 + CC(C)(C)c1cnc(CSc2cnc(NC(=O)C3CCNCC3)s2)o1 [SNS-032] (first compound 0.4 µM, partner dose 0.01 µM) | 82.8 | 250 | 149 | 1420 | 72.7 | 104 | 270 | 102 | 106 | 117
14 | CC1(C)CCC(c2ccc(Cl)cc2)=C(CN2CCN(c3ccc(C(=O)NS(=O)(=O)c4ccc(N[C@H](CCN5CCOCC5)CSc5ccccc5)c(S(=O)(=O)C(F)(F)F)c4)cc3)CC2)C1 + CC1(C)NC(=O)N(c2ccc([N+](=O)[O-])c(C(F)(F)F)c2)C1=O [nilutamide] (first compound 0.4 µM, partner dose 1 µM) | 85 | 158 | 274 | 126 | 386 | 369 | 61.8 | 347 | 318 | 247
15 | CS(=O)(=O)c1ccc(C(=O)Nc2ccc(Cl)c(-c3ccccn3)c2)c(Cl)c1 [vismodegib] + CC(C)(C)c1cnc(CSc2cnc(NC(=O)C3CCNCC3)s2)o1 [SNS-032] (first compound 1 µM, partner dose 0.01 µM) | 137 | 79.2 | 57.9 | 73.8 | 39.8 | 56.4 | 174 | 97.1 | 44.8 | 72.6
16 | NC1(c2ccc(-c3nc4ccn5c(=O)[nH]nc5c4cc3-c3ccccc3)cc2)CCC1 + Cn1cncc1[C@@](N)(c1ccc(Cl)cc1)c1ccc2c(c1)c(-c1cccc(Cl)c1)cc(=O)n2C [tipifarnib] (first compound 0.4 µM, partner dose 0.01 µM) | 232 | 122 | 91.2 | 92.8 | 40.3 | 250 | 150 | 92.8 | 213 | 302
17 | Cn1sc(=O)n(Cc2ccccc2)c1=O + CC1(C)NC(=O)N(c2ccc([N+](=O)[O-])c(C(F)(F)F)c2)C1=O [nilutamide] (first compound 0.4 µM, partner dose 1 µM) | 105 | 243 | 128 | 58.7 | 45.4 | 124 | 116 | 116 | 111 | 65.6
18 | Cn1sc(=O)n(Cc2ccccc2)c1=O + CN(NC(=O)CC(=O)NN(C)C(=S)c1ccccc1)C(=S)c1ccccc1 [STA4783] (first compound 0.4 µM, partner dose 0.006 µM) | 234 | 88.4 | 119 | 4570 | 623 | 1980 | 101 | 556 | 281 | 528
19 | CS(=O)(=O)c1ccc(C(=O)Nc2ccc(Cl)c(-c3ccccn3)c2)c(Cl)c1 [vismodegib] + CC1(C)NC(=O)N(c2ccc([N+](=O)[O-])c(C(F)(F)F)c2)C1=O [nilutamide] (first compound 1 µM, partner dose 1 µM) | 42.8 | 83.2 | 101 | 36.3 | 117 | 78.5 | 76.3 | 160 | 255 | 80.9
20 | CS(=O)(=O)c1ccc(C(=O)Nc2ccc(Cl)c(-c3ccccn3)c2)c(Cl)c1 [vismodegib] + COc1cc2c(Oc3ccc4[nH]c(C)cc4c3F)ncnc2cc1OCCCN1CCCC1 [cediranib] (first compound 1 µM, partner dose 0.4 µM) | 87.8 | 68.3 | 155 | 223 | 187 | 65.4 | 106 | 80 | 78.6 | 83.2
21 | Cn1sc(=O)n(Cc2ccccc2)c1=O + OCCn1cc(-c2cnc3nnn(Cc4ccc5ncccc5c4)c3n2)cn1 [PF04217903] (first compound 0.4 µM, partner dose 1 µM) | 110 | 75 | 50.8 | 37 | 141 | 96.5 | 80.4 | 64.9 | 58.7 | 102

Two entries picked at random from the list so far, as already listed:
Row | Structure (SMILES) | cleaved PARP positive nuclei fraction (501Mel) [%] | cleaved PARP positive nuclei fraction (A101D) [%] | cleaved PARP positive nuclei fraction (A2058) [%] | cleaved PARP positive nuclei fraction (A375) [%] | cleaved PARP positive nuclei fraction (C32) [%] | cleaved PARP positive nuclei fraction (CBRC008) [%] | cleaved PARP positive nuclei fraction (CBRC013) [%] | cleaved PARP positive nuclei fraction (CBRC014) [%] | cleaved PARP positive nuclei fraction (CBRC016) [%] | cleaved PARP positive nuclei fraction (CBRC017) [%]
18 | Cn1sc(=O)n(Cc2ccccc2)c1=O + CN(NC(=O)CC(=O)NN(C)C(=S)c1ccccc1)C(=S)c1ccccc1 [STA4783] (first compound 0.4 µM, partner dose 0.006 µM) | 234 | 88.4 | 119 | 4570 | 623 | 1980 | 101 | 556 | 281 | 528
1 | Cn1cnc2c(F)c(Nc3ccc(Br)cc3Cl)c(C(=O)NOCCO)cc21 [selumetinib] + Cc1ccc(NC(=O)c2cccc(N(C)C)c2)cc1NC(=O)c1ccc(O)cc1 [ZM336372] (first compound 0.015 µM, partner dose 2 µM) | 212 | 127 | 50.8 | 72.8 | 106 | 317 | 107 | 94.4 | 80.9 | 64.3
